± gives the standard deviation of the averaged measurements. This list holds what a sample rich in lowest values left over.
System: NCI-H1944
Test: normalised cell viability (NPI; 0 = phenylarsine oxide control, 1 = DMSO control) (fraction of DMSO control); NCI-H1944 is a non-small cell lung cancer line; higher = more viable cells (less compound toxicity)
Settings: 6 days
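Further: CTB read-out in 384-well plates, triplicate wells, NPI normalised per plate against 1 µM phenylarsine oxide (0) and 0.1% DMSO (1) controls.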

Cc1c(C(=O)NN2CCCCC2)nn(-c2ccc(Cl)cc2Cl)c1-c1ccc(I)cc1
normalised cell viability (glucocorticoid arm: hydrocortisone 2.75 uM co-treatment, compound 1 µM): 0.9953 ± 0.0045
normalised cell viability (glucocorticoid arm: hydrocortisone 2.75 uM co-treatment, compound 5 µM): 1.001 ± 0.0082
normalised cell viability (glucocorticoid arm: hydrocortisone 2.75 uM pre-treated 2 days and continued, compound 1 µM): 0.995 ± 0.025
normalised cell viability (glucocorticoid arm: hydrocortisone 2.75 uM pre-treated 2 days and continued, compound 5 µM): 0.976 ± 0.021
normalised cell viability (glucocorticoid arm: vehicle, compound 1 µM): 0.9997 ± 0.0093
normalised cell viability (glucocorticoid arm: vehicle, compound 5 µM): 1.007 ± 0.0058
